According to PMC6315388 (Biomedicines, 2018):

Assay: general procedure: Fmoc solid-phase peptide synthesis; Rink amide resin (Lys(Boc)-NH-Rink resin 11); HBTU/DIEA; DIC/HOBt
Details: whole synthesis, formate (FA) salt; for crude purity (method not given) / final purity (method not given): analytical RP-HPLC, LC-MS of cleaved resin aliquots; for isolated yield: on resin loading

| Substance | crude purity (method not given) | final purity (method not given) | isolated yield | crude purity (method not given) (run 1) | crude purity (method not given) (run 2) |
| --- | --- | --- | --- | --- | --- |
| H-Ala-D-Trp-Ala-AsF(4-F)-D-Phe-Lys-NH2 | 79% | >99% | 23% |  |  |
| H-His-D-Trp-Ala-(4-F)AsF-D-Phe-Lys-NH2 | 65% | >99% | 3% |  |  |
| H-His-D-Trp-Ala-(4-MeO)AsF-D-Phe-Lys-NH2 | 75% | >99% | 10% |  |  |
| H-His-D-Trp-Ala-AsF(4-HO)-D-Phe-Lys-NH2 | 70% | >99% | 9% |  |  |
| H-His-D-Trp-Ala-AsF-D-Phe-Lys-NH2 |  | >99% | 12% | 73% | 82% |
| H-His-D-Trp-Ala-AsNal-D-Phe-Lys-NH2 | 61% | >99% | 10% |  |  |
